Data as given in PubChem BioAssay AID1159578 (Peter MacCallum Cancer Centre, 2015)
Assay: 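Genome-wide hunt for genes controlling movement of lymphatic endothelial cells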 (primary screen). Cells: human lymphatic endothelial cells. Knock-down reagent: siRNA pool against human genes, 40 nM. Time to read-out: 48 h after transfection. Measurement: 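High-content imaging of dye-stained cells in a scratch assay measures filled wound area and nuclei per well; duplicate means given as ratio to mock and robust z-score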. Direction: migration robust z-score: higher = faster migration into the scratch; nuclei per well: higher = more cells in the well. Rule for the call: 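Migration changed when robust z exceeds 2 or falls below -2 and mean nuclei number is at least 3300; otherwise not called changed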. Calls: active = migration changed; inactive = no migration change, or too few cells.
Here is an unselected part of about 18,000 reagents. About 1,030 of all reagents (5.7%) count as active. 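Inactive calls also include pools with fewer than 3300 nuclei, whose migration was not assessed.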 The raw values are shown without normalisation. The numbers tell different reagents against one gene apart. Not all columns of the deposit are shown.

gene | reagent no. | migration robust z-score | nuclei per well, duplicate mean | Outcome
NEBL | 1 | -0.36 | 6060 | inactive
NEBL | 2 | 0.5 | 7248 | inactive
SLAMF9 | 1 | 0 | 4654 | inactive
MUC2 | 1 | 0.5 | 5317 | inactive
SSH2 | 1 | 0.34 | 5192 | inactive
PCOLCE2 | 1 | -0.56 | 5300 | inactive
PTAFR | 1 | 1.12 | 6032 | inactive
GCNT3 | 1 | -1.06 | 5068 | inactive

3 of these entries, set out differently:
gene	reagent no.	migration robust z-score	nuclei per well, duplicate mean	Outcome
MUC2	1	0.5	5317	inactive
SSH2	1	0.34	5192	inactive
PCOLCE2	1	-0.56	5300	inactive

The list goes on:
gene | reagent no. | migration robust z-score | nuclei per well, duplicate mean | Outcome
DTX3L | 1 | -0.16 | 6060 | inactive
TSPYL1 | 1 | 1.37 | 6672 | inactive
CERS6 | 1 | -1.12 | 4889 | inactive
DDX19B | 1 | 0.75 | 5333 | inactive
SUN3 | 1 | -2.18 | 6320 | active
RNASE8 | 1 | -0.01 | 7540 | inactive
NEIL2 | 1 | -0.54 | 5116 | inactive
MEF2A | 1 | 0.78 | 6926 | inactive
C14orf93 | 1 | -0.14 | 6239 | inactive
PTEN | 1 | 0.03 | 5947 | inactive
OR13A1 | 1 | -0.56 | 5125 | inactive
TYW5 | 1 | 1.5 | 6436 | inactive
OR6B2 | 1 | 0.9 | 5174 | inactive
GALNT18 | 1 | 0.96 | 5346 | inactive
DSCR4 | 1 | -0.28 | 5556 | inactive
